The values below come from publication PMC12393484.

By UniProt entry, the sequences of proteins in these tests, tags left out.
UniProt P35713: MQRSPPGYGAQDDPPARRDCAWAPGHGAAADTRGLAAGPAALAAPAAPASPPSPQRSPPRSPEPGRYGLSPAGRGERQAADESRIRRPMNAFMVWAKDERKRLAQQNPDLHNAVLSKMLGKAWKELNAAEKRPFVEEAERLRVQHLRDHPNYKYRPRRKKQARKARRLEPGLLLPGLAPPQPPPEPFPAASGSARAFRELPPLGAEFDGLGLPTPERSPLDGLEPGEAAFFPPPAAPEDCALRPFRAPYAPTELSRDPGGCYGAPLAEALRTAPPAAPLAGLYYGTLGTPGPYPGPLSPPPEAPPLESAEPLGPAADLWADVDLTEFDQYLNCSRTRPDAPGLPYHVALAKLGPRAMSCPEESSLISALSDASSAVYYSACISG
UniProt P51532: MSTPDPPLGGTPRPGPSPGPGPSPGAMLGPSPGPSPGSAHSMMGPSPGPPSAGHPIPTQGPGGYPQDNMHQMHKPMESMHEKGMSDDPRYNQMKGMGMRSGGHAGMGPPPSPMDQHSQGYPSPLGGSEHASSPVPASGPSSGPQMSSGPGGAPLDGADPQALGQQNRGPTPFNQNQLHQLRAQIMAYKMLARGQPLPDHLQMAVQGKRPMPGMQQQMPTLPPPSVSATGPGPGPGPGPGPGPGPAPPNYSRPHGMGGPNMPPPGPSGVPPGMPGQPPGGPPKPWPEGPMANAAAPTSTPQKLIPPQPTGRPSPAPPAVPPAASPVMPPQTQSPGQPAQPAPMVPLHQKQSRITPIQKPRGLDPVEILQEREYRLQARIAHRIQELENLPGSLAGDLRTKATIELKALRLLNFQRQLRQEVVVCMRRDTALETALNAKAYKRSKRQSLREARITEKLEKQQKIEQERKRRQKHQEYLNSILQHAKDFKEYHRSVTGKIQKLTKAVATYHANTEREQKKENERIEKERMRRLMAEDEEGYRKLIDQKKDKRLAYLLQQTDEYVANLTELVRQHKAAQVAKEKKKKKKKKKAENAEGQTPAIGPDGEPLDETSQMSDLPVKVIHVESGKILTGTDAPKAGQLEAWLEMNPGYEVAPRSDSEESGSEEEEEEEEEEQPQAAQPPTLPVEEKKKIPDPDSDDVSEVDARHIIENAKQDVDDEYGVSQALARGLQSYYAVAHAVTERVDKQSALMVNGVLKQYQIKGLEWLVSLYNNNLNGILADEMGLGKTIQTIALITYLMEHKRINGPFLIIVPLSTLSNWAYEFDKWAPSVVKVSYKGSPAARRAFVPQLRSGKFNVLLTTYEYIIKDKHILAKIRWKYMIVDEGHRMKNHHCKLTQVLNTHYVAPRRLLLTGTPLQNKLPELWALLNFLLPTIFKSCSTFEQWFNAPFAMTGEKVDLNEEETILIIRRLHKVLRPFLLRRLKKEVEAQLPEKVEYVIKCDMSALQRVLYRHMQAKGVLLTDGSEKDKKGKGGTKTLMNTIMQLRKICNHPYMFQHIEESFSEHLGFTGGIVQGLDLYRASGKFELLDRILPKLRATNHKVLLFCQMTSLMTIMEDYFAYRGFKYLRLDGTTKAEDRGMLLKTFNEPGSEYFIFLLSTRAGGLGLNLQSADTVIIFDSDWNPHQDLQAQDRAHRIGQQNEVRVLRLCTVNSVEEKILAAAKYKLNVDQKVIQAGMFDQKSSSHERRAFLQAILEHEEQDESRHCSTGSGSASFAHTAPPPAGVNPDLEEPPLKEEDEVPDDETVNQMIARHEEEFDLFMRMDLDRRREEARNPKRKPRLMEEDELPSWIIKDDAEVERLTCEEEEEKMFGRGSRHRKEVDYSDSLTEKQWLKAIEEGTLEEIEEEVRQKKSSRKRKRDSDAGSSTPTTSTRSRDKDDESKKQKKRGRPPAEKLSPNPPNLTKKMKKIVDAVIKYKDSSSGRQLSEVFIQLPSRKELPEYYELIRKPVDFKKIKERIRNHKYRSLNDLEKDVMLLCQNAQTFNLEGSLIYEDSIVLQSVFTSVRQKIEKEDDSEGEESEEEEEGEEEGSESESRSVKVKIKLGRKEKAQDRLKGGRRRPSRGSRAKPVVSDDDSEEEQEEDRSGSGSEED
UniProt P51531: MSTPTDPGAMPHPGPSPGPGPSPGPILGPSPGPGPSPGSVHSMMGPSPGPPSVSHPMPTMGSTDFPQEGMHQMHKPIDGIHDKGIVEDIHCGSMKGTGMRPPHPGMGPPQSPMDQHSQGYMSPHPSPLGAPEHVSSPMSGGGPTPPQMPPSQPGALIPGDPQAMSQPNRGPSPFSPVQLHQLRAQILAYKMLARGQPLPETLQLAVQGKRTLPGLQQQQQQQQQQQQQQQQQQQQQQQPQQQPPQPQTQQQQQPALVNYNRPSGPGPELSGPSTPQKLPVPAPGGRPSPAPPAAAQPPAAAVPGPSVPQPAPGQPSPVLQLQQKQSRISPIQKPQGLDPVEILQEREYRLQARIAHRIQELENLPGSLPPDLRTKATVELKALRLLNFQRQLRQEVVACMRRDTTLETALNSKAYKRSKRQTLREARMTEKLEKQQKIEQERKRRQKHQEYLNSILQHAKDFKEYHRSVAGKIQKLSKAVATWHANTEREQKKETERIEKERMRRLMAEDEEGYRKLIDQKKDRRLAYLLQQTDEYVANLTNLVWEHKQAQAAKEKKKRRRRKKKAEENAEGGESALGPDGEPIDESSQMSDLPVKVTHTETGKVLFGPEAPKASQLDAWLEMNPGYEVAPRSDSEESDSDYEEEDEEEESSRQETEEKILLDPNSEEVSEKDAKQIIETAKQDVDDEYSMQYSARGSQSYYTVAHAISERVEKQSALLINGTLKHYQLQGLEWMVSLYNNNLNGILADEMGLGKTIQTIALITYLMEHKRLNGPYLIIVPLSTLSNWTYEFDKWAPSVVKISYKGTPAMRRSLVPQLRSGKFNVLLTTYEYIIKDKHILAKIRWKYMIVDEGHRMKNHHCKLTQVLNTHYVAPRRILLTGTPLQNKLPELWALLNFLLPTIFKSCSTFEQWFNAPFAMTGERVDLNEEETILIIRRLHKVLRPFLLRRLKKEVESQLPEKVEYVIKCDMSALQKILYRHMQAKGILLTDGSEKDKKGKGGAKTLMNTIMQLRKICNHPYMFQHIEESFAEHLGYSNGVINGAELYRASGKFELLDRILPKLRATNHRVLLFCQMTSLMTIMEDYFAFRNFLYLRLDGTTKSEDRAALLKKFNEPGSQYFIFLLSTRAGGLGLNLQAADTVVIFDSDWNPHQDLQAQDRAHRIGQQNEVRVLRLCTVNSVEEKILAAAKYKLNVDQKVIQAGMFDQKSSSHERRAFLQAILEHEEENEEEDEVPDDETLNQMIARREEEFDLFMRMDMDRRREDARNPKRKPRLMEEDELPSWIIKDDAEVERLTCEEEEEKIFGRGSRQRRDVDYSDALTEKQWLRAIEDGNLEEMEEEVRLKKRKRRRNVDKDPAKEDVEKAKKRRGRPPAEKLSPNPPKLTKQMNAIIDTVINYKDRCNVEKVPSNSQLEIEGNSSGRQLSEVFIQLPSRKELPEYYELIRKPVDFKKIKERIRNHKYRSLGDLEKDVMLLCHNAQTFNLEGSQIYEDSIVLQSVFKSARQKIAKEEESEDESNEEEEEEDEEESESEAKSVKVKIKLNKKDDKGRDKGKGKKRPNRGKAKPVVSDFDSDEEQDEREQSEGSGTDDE

The assay addresses BirA*-fusion of SOX18 (pFuW-myc-BirA-NLS-SOX18) (human) (UniProt P35713). The assay is described as follows: proximity labelling; BioID: BirA*SOX18 (control BirA*Cherry) in stably, latently KSHV-infected iSLK.219 cells; 50 uM biotin 24 h; Strep-Tactin purification, LC-MS; filtered with CRAPome and SAINTexpress.

No constants are given. Whether binding was seen depends on the method and setting. In cells and extracts the contact can be indirect. These calls come from enrichment with a bait or labelling near it, and not all partners need be listed.

Take “BRG1, ATPase subunit of the SWI/SNF chromatin-remodeling complex (from UniProt P51532 1-1647)”: the binding result is listed as “binds”.
The value for “BRM, SWI/SNF ATPase (from UniProt P51531 1-1590)” was “binds”.
